Results taken from US20200016315A1 (SYDDANSK UNIVERSITET, published 2020).
No constants are given. Whether binding was seen depends on the method and setting. Some entries that bind do so weakly or less than the wild type.

The chains behind the UniProt entries cited, without tags or fusion partners. Where a name states a change or a piece, a line headed by the entry shows the natural chain unless it says otherwise.
UniProt P69905: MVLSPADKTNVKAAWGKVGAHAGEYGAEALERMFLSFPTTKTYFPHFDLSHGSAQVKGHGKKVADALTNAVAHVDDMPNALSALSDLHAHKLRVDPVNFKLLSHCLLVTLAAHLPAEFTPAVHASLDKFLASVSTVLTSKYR

Target: hemoglobin (human) (UniProt P69905)
Test: removal of added hemoglobin from plasma by protein-Sepharose, H-index

B1: IsdH N1N2N3 (residues 82-655), wild type (receptor)
chain: NYPAADESLKDAIKDPALENKEHDIGPREQVNFQLLDKNNETQYYHFFSIKDPADVYYTKKKAEVELDINTASTWKKFEVYENNQKLPVRLVSYSPVPEDHAYIRFPVSDGTQELKIVSSTQIDDGEETNYDYTKLVFAKPIYNDPSLVKSDTNDAVVTNDQSSSVASNQTNTNTSNQNISTINNANNQPQATTNMSQPAQPKSSTNADQASSQPAHETNSNGNTNDKTNESSNQSDVNQQYPPADESLQDAIKNPAIIDKEHTADNWRPIDFQMKNDKGERQFYHYASTVEPATVIFTKTGPIIELGLKTASTWKKFEVYEGDKKLPVELVSYDSDKDYAYIRFPVSNGTREVKIVSSIEYGENIHEDYDYTLMVFAQPITNNPDDYVDEETYNLQKLLAPYHKAKTLERQVYELEKLQEKLPEKYKAEYKKKLDQTRVELADQVKSAVTEFENVTPTNDQLTDLQEAHFVVFESEENSESVMDGFVEHPFYTATLNGQKYVVMKTKDDSYWKDLIVEGKRVTTVSKDPKNNSRTLIFPYIPDKAVYNAIVKVVVANIGYEGQYHVRIINQDI
modifications: coupled through primary amines to CNBr-activated Sepharose
notes: In the assay the protein was immobilized on Sepharose; also called IsdH N1N2N3 wt; N1N2N3-Seph; not shown: vector-encoded His6 tag of pET-15b
In the case of B1, the binding is reported as “binds”.
